# According to the supplement of paper PMC4371806:
# Over roughly 1,600 compounds, “plate-normalized OD600 growth (mean of duplicates)” has its median near 0.31; the lowest 2% begin near 0.23. This is one part of the list.
# Tested on: Escherichia coli BW25113
# Experiment: plate-normalized OD600 growth (mean of duplicates) (OD600 (normalized)); higher = more growth (less inhibition)
# Settings: 10 µM
# Procedure: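 E. coli BW25113 in LB (100 µl, 96-well, no shaking) was exposed to 10 µM of each compound (here the ChemBridge subset of a ~30,000-member library) and grown at 37°C for 24 h or 15°C for 48 h, in duplicate. Growth was read as OD600 and the duplicate ODs were normalized across screening plates to correct plate-to-plate variation.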
Compound,"plate-normalized OD600 growth (temperature: 15°C, 48 h)","plate-normalized OD600 growth (temperature: 37°C, 24 h)"
CN1CCC(NCc2ccccc2F)CC1,0.212,0.645
CC(=O)Nc1ccc2c(c1)ncn2-c1ccccc1,0.265,0.624
Cc1ccc(NCc2ccc([N+](=O)[O-])cc2)cc1C,0.237,0.605
COc1cc([N+](=O)[O-])ccc1N1CCCC1,0.245,0.613
COc1ccc(CN2CCC(N3CCCCC3)CC2)cc1,0.252,0.632
N#CCC(N)=Nc1sc2c(c1C#N)CCCC2,0.247,0.619
CCN(CC)Cc1cc(NC(C)=O)ccc1O,0.262,0.623
N#CC(c1ccccc1)C(C#N)c1ccccc1 (stereo not given),0.241,0.606
CC1(C)Cc2ccccc2-c2nnc(-c3ccccc3)n21,0.261,0.634
Cc1nc2ccccc2n1C(=O)c1ccccc1[N+](=O)[O-],0.227,0.631
c1ccc(N2CCN(C3C4CC5CC(C4)CC3C5)CC2)cc1 (stereo not given),0.244,0.6
CNc1ccc(OC(F)F)cc1C(=O)c1ccccc1,0.248,0.609
CNC(=O)N1C(=O)C(=O)c2ccccc21,0.253,0.63
O=C(NCC(O)c1ccccc1)c1ccc(Cl)cc1 (stereo not given),0.264,0.632
CC(CCc1ccccc1)N1CCN(c2ccccc2F)CC1 (stereo not given),0.25,0.606
CCC(NS(=O)(=O)c1ccc(Br)cc1)C(=O)O (stereo not given),0.255,0.615
CCOC(=O)N1CCN(CC2CC=CCC2)CC1 (stereo not given),0.257,0.625
CC(=O)Nc1c(Cl)c(Cl)c(NC(C)=O)c2n[nH]nc12,0.261,0.628
COc1cc(CN(CCN(C)C)Cc2ccccc2)cc(OC)c1,0.255,0.619
CS(=O)(=O)c1nc2ccccc2[nH]1,0.26,0.635
CN(C)CCN(Cc1ccccc1)Cc1ccc(Br)cc1,0.231,0.609
Brc1ccc(CN2CCc3ccccc3C2)o1,0.242,0.639

Compound,"plate-normalized OD600 growth (temperature: 15°C, 48 h)","plate-normalized OD600 growth (temperature: 37°C, 24 h)"
CSC1=C(C#N)C(c2ccc(O)cc2)CC(=O)N1 (stereo not given),0.247,0.622
C=C(C)[C@@H]1CC=C(CN2CCN(c3ccccn3)CC2)CC1,0.254,0.621
CCOc1cccc(CN2CCCCCC2)c1O,0.241,0.627
COc1ccc(-c2nnc(-c3ccc(OC)cc3)o2)cc1,0.254,0.622
N#Cc1c(N)c(C(=O)c2ccccc2)n2c1CCC2,0.266,0.631
CCC1CCC(NCCCN2CCOCC2)CC1 (stereo not given),0.268,0.644
COc1ccc(C(=O)Nc2ccccc2)cc1NC(=O)c1cccs1,0.241,0.645
CCOc1ccc(C2(C)CC(=O)NC2=O)cc1 (stereo not given),0.277,0.647
O=S(=O)(Nc1cccnc1)c1cc(Cl)ccc1Cl,0.267,0.619
COCCCNC(=O)c1cccc(C)c1,0.249,0.615
CCC(=O)N1CCN(c2ccc([N+](=O)[O-])cc2F)CC1,0.25,0.627
CC1(C)CC(=O)C2=C(C1)N(c1cccc(O)c1)C(=O)CC2c1ccccc1 (stereo not given),0.24,0.597
CN1CCN(C2CC(=O)N(N(C)C)C2=O)CC1 (stereo not given),0.233,0.604
CC(C)N(C(=O)c1cccs1)C(C)C,0.257,0.626
COc1ccc(NC(=O)c2ccccc2OC)cc1OC,0.248,0.615
CC(C)C(O)(C#CC(O)(C(C)C)C(C)C)C(C)C,0.247,0.625
NC(=O)C1CCCN(CCc2ccccc2)C1 (stereo not given),0.268,0.632
CC1(C)CC(=O)C([N+](=O)[O-])=C(NCc2ccccc2)C1,0.253,0.633
C=C(C)C(C)(O)C#CCN1CCCCC1 (stereo not given),0.251,0.612
O=C(c1sc2ccccc2c1Cl)N1CCN(CCN2C(=O)C3C4C=CC(C4)C3C2=O)CC1 (stereo not given),0.243,0.611
Cc1sc(N)nc1C12CC3CC(CC(C3)C1)C2,0.245,0.58
CCCCOc1ccc(CN2CCC(O)CC2)cc1,0.272,0.664

Compound,"plate-normalized OD600 growth (temperature: 15°C, 48 h)","plate-normalized OD600 growth (temperature: 37°C, 24 h)"
CC(Cc1c[nH]c2ccccc12)N1C(=O)CCC1=O (stereo not given),0.275,0.623
COc1cc(CNc2ccc(C)cc2Br)cc(OC)c1OC,0.254,0.621
N#CC(=CC=Cc1ccccc1)c1nc(-c2ccc3c(c2)OCO3)cs1,0.252,0.609
COc1ccc(CN2CCN(C(C)=O)CC2)c(C)c1C,0.262,0.626
Cc1cc(N2CCCCC2)c(F)cc1[N+](=O)[O-],0.235,0.621
N#C/C(=C/c1ccc2c(c1)OCO2)c1ccc(Cl)cc1,0.248,0.642
CCOc1ccc(C(=O)c2ccc([N+](=O)[O-])cc2Cl)cc1,0.265,0.637
NS(=O)(=O)c1ccc(Cl)c(C(=O)Nc2cccc([N+](=O)[O-])c2)c1,0.25,0.605
COc1ccc2[nH]cc(CCN3C(=O)c4ccccc4C3=O)c2c1,0.235,0.613
NC(=O)c1ccccc1NC(=O)c1ccc(Cl)c(Cl)c1,0.255,0.605
CCn1c2ccccc2n2cc(C)nc12,0.276,0.635
Cc1cc(C)nc(SCCN(C)C)n1,0.242,0.609
N#Cc1c(-c2ccccc2)cc(-c2ccco2)c(C#N)c1N,0.255,0.622
CCN(CC)CCCOc1ccc([N+](=O)[O-])cc1,0.246,0.624
O=C(O)c1ccc(N2C(=O)CC(N3CCN(c4ccccn4)CC3)C2=O)cc1 (stereo not given),0.244,0.618
COc1ccc(/C=C/c2[nH]c(=O)[nH]c(=O)c2[N+](=O)[O-])cc1Br,0.258,0.62
COc1ccc(C(=O)Nc2ccccc2-c2ccccc2)cc1,0.256,0.635
O=C(c1ccccc1)c1cc(F)c(N2CCOCC2)cc1Cl,0.239,0.601
O=[N+]([O-])c1ccc(S(=O)(=O)N2CCCCCC2)cc1,0.269,0.616
CN1C=CC=C/C1=C\C=C1\C=Nc2ccccc21,0.258,0.635
COc1ccc(N2CCN(Cc3cccc(OC)c3OC)CC2)cc1,0.254,0.625
CC(NC(=O)C(c1ccccc1)c1ccccc1)c1ccccc1 (stereo not given),0.269,0.641

Compound,"plate-normalized OD600 growth (temperature: 15°C, 48 h)","plate-normalized OD600 growth (temperature: 37°C, 24 h)"
Cc1cc(C)n(-c2c(F)c(F)c(CO)c(F)c2F)n1,0.256,0.631
CN(Cc1ccc2c(c1)OCO2)C1CCCCC1,0.253,0.606
O=C(/C=C/c1cc2c(cc1Br)OCO2)c1cccs1,0.249,0.622
CCN(CC)C(=O)c1ccc([N+](=O)[O-])o1,0.247,0.627
O=S(=O)(NC1CC1)c1ccc(Br)cc1,0.248,0.603
CC(=O)c1sc(Nc2ccc(Oc3ccccc3)cc2)nc1C,0.223,0.607
COc1ccc(CN2CCc3c([nH]c4ccccc34)C2)cc1C,0.231,0.599
O=C(Nc1cc(Cl)ccc1Cl)c1ccc(Br)o1,0.236,0.61
N#CCNC1CC(=O)N(c2ccc(Cl)cc2)C1=O (stereo not given),0.244,0.613
CN(Cc1ccccc1)C1CC(=O)N(c2ccc(Br)cc2)C1=O (stereo not given),0.247,0.599
O=C(O)CCCC(=O)Nc1ccccc1Br,0.239,0.581
CC1(C)CC(=O)c2c(CC3CC(=O)NC(=O)C3)noc2C1,0.222,0.614
CC(=O)N1c2ccccc2NC2=C(C(=O)CC(C)(C)C2)C1c1cccn1C (stereo not given),0.253,0.612
CC(=O)c1sc(N2N=C(c3ccccc3)CC2c2ccccc2)nc1C (stereo not given),0.254,0.656
CC(CN1CCOCC1)c1ccccc1 (stereo not given),0.258,0.619
CC(=O)Nc1c(Cl)cnn(-c2ccccc2)c1=O,0.303,0.645
CCOC(=O)Nc1cccnc1[N+](=O)[O-],0.271,0.648
O=C(O)c1ccc2c(c1)C(=O)N(c1c[nH]c(=O)[nH]c1=O)C2=O,0.239,0.592
COCC(O)CN1CCN(c2ccc(Cl)cc2[N+](=O)[O-])CC1 (stereo not given),0.239,0.607
CCCOc1ccc(NC(=O)c2ccc([N+](=O)[O-])cc2)cc1,0.244,0.624
COc1ccc2[nH]c3ccc([N+](=O)[O-])cc3c(=O)c2c1,0.291,0.631
CC(=O)Nc1ccc2nc3c(=O)n(C)c(=O)n(C)c3nc2c1,0.241,0.617

Compound,"plate-normalized OD600 growth (temperature: 15°C, 48 h)","plate-normalized OD600 growth (temperature: 37°C, 24 h)"
COc1ccc(Cc2ccc(OC)c(N)c2)cc1N,0.254,0.632
Cc1ccc(S(=O)(=O)c2cc(O)ccc2O)cc1C,0.254,0.619
CC1CC(Nc2ccccc2)c2ccccc2N1 (stereo not given),0.265,0.615
Cc1ccc(C2=C(O)c3ccccc3C(=O)C2=O)cc1,0.252,0.603
CC(C)(C)Sc1cc(C(=O)O)sc1C(=O)O,0.244,0.634
CCN1CCN(C2CCC(C(C)(C)C)CC2)CC1 (stereo not given),0.252,0.595
O=C(NCCc1c[nH]c2ccc(OCc3ccccc3)cc12)C1CC1,0.26,0.618
CC(C)(C)c1ccc(S(=O)(=O)CCc2ccccn2)cc1,0.256,0.609
O=C(Nc1cccc([N+](=O)[O-])c1)C1CC1c1ccccc1 (stereo not given),0.253,0.617
COc1ccc(CC(=O)Nc2ccccc2Br)cc1,0.236,0.608
c1ccc(COc2cccc(CN3CCSCC3)c2)cc1,0.245,0.584
CC(=O)c1c(C)nc2ccccn12,0.248,0.622
COc1cccc(C(N)CC(=O)O)c1 (stereo not given),0.238,0.649
NC(=O)c1ccc(C(N)=O)c(-c2ccccc2)c1,0.258,0.6
CCOc1ccc(C(=O)Nc2ccc(S(=O)(=O)Nc3nccs3)cc2)cc1,0.241,0.613
O=C(c1ccccc1Cl)N1CCN(c2ccc(F)cc2)CC1,0.247,0.613
CN(C)CCN(C)Cc1ccc(Cl)cc1Cl,0.252,0.616
Cc1ccc(S(=O)(=O)NCC23C=CC(O2)C2C(=O)N(Cc4ccccc4)C(=O)C23)cc1 (stereo not given),0.236,0.591
O=C(O)CC1c2ccccc2Oc2ccccc21,0.243,0.616
Cc1nc2cc(Cl)ccc2n1Cc1ccccc1,0.256,0.597
O=C1C2C(c3cccc(F)c3)OC3(C(=O)c4ccccc4C3=O)C2C(=O)N1C1CCCCC1 (stereo not given),0.25,0.622
C1CCCC(NCCCN2CCOCC2)CC1,0.246,0.609

# Quoted from the entries so far for reference:
Compound,"plate-normalized OD600 growth (temperature: 15°C, 48 h)","plate-normalized OD600 growth (temperature: 37°C, 24 h)"
O=C(NCC(O)c1ccccc1)c1ccc(Cl)cc1 (stereo not given),0.264,0.632
CC(CCc1ccccc1)N1CCN(c2ccccc2F)CC1 (stereo not given),0.25,0.606
CCC(NS(=O)(=O)c1ccc(Br)cc1)C(=O)O (stereo not given),0.255,0.615
CCOC(=O)N1CCN(CC2CC=CCC2)CC1 (stereo not given),0.257,0.625
CC(=O)Nc1c(Cl)c(Cl)c(NC(C)=O)c2n[nH]nc12,0.261,0.628
COc1cc(CN(CCN(C)C)Cc2ccccc2)cc(OC)c1,0.255,0.619
